# Data from the supplement of paper PMC8728848.
# The list shows a part of the results.
# B1: PX14404-bvu-534-26-534 (Bacteroides vulgatus) (protein)
# chain: EDPRGKLTPENFFSTQDELNMSIYALYQKVNLSQVYTNMQLPQWQGDDITTNPGSNKQPAAEMDKFAAANNNKGVKDAWNMHYAIVKAANLIIQGASKTPTTQDEINIALGQAKFWRAYAYFTLVRLWGPLPMNLDNVNDDYTKPLSPVEEVYGHIVQDLTEAEAVLPTGYSGSPRFLNGVNVYVTRQAAKSTLAAVYMAMAGWPMNKTEYYAKAAEKAKEVIEGVNRGEYEYKLDKDYKDVYAMSNNYNNETVLGINYSPFVDWAQDSELTSCNQFESLGGWGDAWGEIRFWKEFPDGPRKDATYDPKIRLKDGTLVDWWELKEDGTPVVPEHHPMFSIFSVNWDPASKVNTSAPYDYTKPASQNMCNDHRHRIIRYSEVLLWYAEAKARTGQTDELAFKCLNDVRERAGLEPLTGLSADDLAEAAYKEHGWEVAGYWVALVTRRADQFRMNRLKDTFKERAENTAVEVADGILVKESVEYTNRTWSDNLMYLPYPDMDSQKNPNLVR
# Experiments:
# Experiment in all cases: glycan array binding signal (z-score within array); higher = stronger binding
# Details in all cases: glycan notation: IUPAC condensed, linker removed
# [1] = target: Man(a1-3)[Man(a1-6)]Man(a1-6)[Man(a1-3)]Man
# Procedure, shortened: (§1)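 Glycan array binding is given as a within-array Z-score, which can be read as non-binding when negative. The arrays, 3228 of them, came from the Consortium for Functional Glycomics database and were retained only where the protein sequence was available. Z-scores were averaged across arrays of the same protein sequence at different concentrations or buffers and across linkers.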
# [2] = target: Man(a1-3)[Man(a1-6)]Man(a1-6)[Man(a1-3)]Man(b1-4)GlcNAc(b1-4)GlcNAc
# Procedure, shortened: as §1
# [3] = target: Man(a1-3)[Man(a1-6)]Man(b1-4)GlcNAc(b1-4)GlcNAc
# Procedure, shortened: as §1
# [4] = target: Man(a1-3)[Man(a1-6)]Man(b1-4)GlcNAc(b1-4)[Fuc(a1-6)]GlcNAc
# Procedure, shortened: as §1
# [5] = target: Man(a1-6)Man
# Procedure, shortened: as §1
# [6] = target: Man(b1-4)GlcNAc
# Procedure, shortened: as §1
# [7] = target: MurNAc(b1-4)GlcNAc
# Procedure, shortened: as §1
# [8] = target: Neu5Ac(a2-3)Gal
# Procedure, shortened: as §1
# [9] = target: Neu5Ac(a2-3)Gal(b1-3)GalNAc
# Procedure, shortened: as §1
# [10] = target: Neu5Ac(a2-3)Gal(b1-3)GalNAc(b1-3)Gal(a1-4)Gal(b1-4)Glc
# Procedure, shortened: as §1
# [11] = target: Neu5Ac(a2-3)Gal(b1-3)GalNAc(b1-4)[Neu5Ac(a2-3)]Gal(b1-4)Glc
# Procedure, shortened: as §1
# [12] = target: Neu5Ac(a2-3)Gal(b1-3)GalNAc(b1-4)[Neu5Ac(a2-8)Neu5Ac(a2-3)]Gal(b1-4)Glc
# Procedure, shortened: as §1
# [13] = target: Neu5Ac(a2-3)Gal(b1-3)GalNAc6S
# Procedure, shortened: as §1
# [14] = target: Neu5Ac(a2-3)Gal(b1-3)GlcNAc
# Procedure, shortened: as §1
# [15] = target: Neu5Ac(a2-3)Gal(b1-3)GlcNAc(b1-2)Man
# Procedure, shortened: as §1
# [16] = target: Neu5Ac(a2-3)Gal(b1-3)GlcNAc(b1-2)Man(a1-3)[GlcNAc(b1-4)][Neu5Ac(a2-3)Gal(b1-3)GlcNAc(b1-2)Man(a1-6)]Man(b1-4)GlcNAc(b1-4)GlcNAc
# Procedure, shortened: as §1
# [17] = target: Neu5Ac(a2-3)Gal(b1-3)GlcNAc(b1-2)Man(a1-3)[Neu5Ac(a2-3)Gal(b1-3)GlcNAc(b1-2)Man(a1-6)]Man(b1-4)GlcNAc(b1-4)GlcNAc
# Procedure, shortened: as §1
# [18] = target: Neu5Ac(a2-3)Gal(b1-3)GlcNAc(b1-3)Gal(b1-3)GlcNAc
# Procedure, shortened: as §1
# [19] = target: Neu5Ac(a2-3)Gal(b1-3)GlcNAc(b1-3)Gal(b1-4)GlcNAc
# Procedure, shortened: as §1
# [20] = target: Neu5Ac(a2-3)Gal(b1-3)GlcNAc(b1-3)GalNAc
# Procedure, shortened: as §1
# [21] = target: Neu5Ac(a2-3)Gal(b1-3)GlcNAc(b1-4)Gal(b1-4)Glc
# Procedure, shortened: as §1
# [22] = target: Neu5Ac(a2-3)Gal(b1-3)GlcNAc(b1-6)GalNAc
# Procedure, shortened: as §1
# [23] = target: Neu5Ac(a2-3)Gal(b1-3)GlcNAc6S
# Procedure, shortened: as §1
# [24] = target: Neu5Ac(a2-3)Gal(b1-3)[Fuc(a1-4)]GlcNAc
# Procedure, shortened: as §1
# [25] = target: Neu5Ac(a2-3)Gal(b1-3)[Fuc(a1-4)]GlcNAc(b1-3)Gal(b1-3)[Fuc(a1-4)]GlcNAc
# Procedure, shortened: as §1
# [26] = target: Neu5Ac(a2-3)Gal(b1-3)[Fuc(a1-4)]GlcNAc(b1-3)Gal(b1-4)[Fuc(a1-3)]GlcNAc
# Procedure, shortened: as §1
# [27] = target: Neu5Ac(a2-3)Gal(b1-3)[GlcNAc(b1-6)]GalNAc
# Procedure, shortened: as §1
# [28] = target: Neu5Ac(a2-3)Gal(b1-3)[Neu5Ac(a2-6)]GalNAc
# Procedure, shortened: as §1
# [29] = target: Neu5Ac(a2-3)Gal(b1-3)[Neu5Ac(a2-6)]GlcNAc(b1-3)[Fuc(a1-3)[Gal(b1-4)]GlcNAc(b1-6)]Gal(b1-4)Glc
# Procedure, shortened: as §1
# [30] = target: Neu5Ac(a2-3)Gal(b1-3)]Neu5Ac(a2-3)Gal(b1-4)]GlcNAc
# Procedure, shortened: as §1
# [31] = target: Neu5Ac(a2-3)Gal(b1-4)Glc
# Procedure, shortened: as §1
# [32] = target: Neu5Ac(a2-3)Gal(b1-4)GlcNAc
# Procedure, shortened: as §1
# [33] = target: Neu5Ac(a2-3)Gal(b1-4)GlcNAc(b1-2)Man
# Procedure, shortened: as §1
# [34] = target: Neu5Ac(a2-3)Gal(b1-4)GlcNAc(b1-2)Man(a1-3)[GlcNAc(b1-4)][Neu5Ac(a2-3)Gal(b1-4)GlcNAc(b1-2)Man(a1-6)]Man(b1-4)GlcNAc(b1-4)GlcNAc
# Procedure, shortened: as §1
# [35] = target: Neu5Ac(a2-3)Gal(b1-4)GlcNAc(b1-2)Man(a1-3)[Neu5Ac(a2-3)Gal(b1-4)GlcNAc(b1-2)Man(a1-6)]Man(b1-4)GlcNAc(b1-4)GlcNAc
# Procedure, shortened: as §1
# [36] = target: Neu5Ac(a2-3)Gal(b1-4)GlcNAc(b1-2)Man(a1-3)[Neu5Ac(a2-3)Gal(b1-4)GlcNAc(b1-2)Man(a1-6)]Man(b1-4)GlcNAc(b1-4)[Fuc(a1-6)]GlcNAc
# Procedure, shortened: as §1
# [37] = target: Neu5Ac(a2-3)Gal(b1-4)GlcNAc(b1-2)Man(a1-3)[Neu5Ac(a2-6)Gal(b1-4)GlcNAc(b1-2)Man(a1-6)]Man(b1-4)GlcNAc(b1-4)GlcNAc
# Procedure, shortened: as §1
# [38] = target: Neu5Ac(a2-3)Gal(b1-4)GlcNAc(b1-2)[Neu5Ac(a2-3)Gal(b1-4)GlcNAc(b1-4)]Man(a1-3)[GlcNAc(b1-4)][Neu5Ac(a2-3)Gal(b1-4)GlcNAc(b1-2)[Neu5Ac(a2-3)Gal(b1-4)GlcNAc(b1-6)]Man(a1-6)]Man(b1-4)GlcNAc(b1-4)GlcNAc
# Procedure, shortened: as §1
binder,measurement,setting,value
B1,glycan array binding signal (z-score),[1],2.67
same,glycan array binding signal (z-score),[2],1.02
same,glycan array binding signal (z-score),[3],-0.728
same,glycan array binding signal (z-score),[4],-0.886
same,glycan array binding signal (z-score),[5],-0.464
same,glycan array binding signal (z-score),[6],-0.223
same,glycan array binding signal (z-score),[7],0.48
same,glycan array binding signal (z-score),[8],0.33
same,glycan array binding signal (z-score),[9],-0.385
same,glycan array binding signal (z-score),[10],0.877
same,glycan array binding signal (z-score),[11],1.67
same,glycan array binding signal (z-score),[12],-0.197
same,glycan array binding signal (z-score),[13],0.267
same,glycan array binding signal (z-score),[14],0.177
same,glycan array binding signal (z-score),[15],1.81
same,glycan array binding signal (z-score),[16],-0.618
same,glycan array binding signal (z-score),[17],-0.193
same,glycan array binding signal (z-score),[18],-1.2
same,glycan array binding signal (z-score),[19],-0.891
same,glycan array binding signal (z-score),[20],0.366
same,glycan array binding signal (z-score),[21],-0.846
same,glycan array binding signal (z-score),[22],-0.09
same,glycan array binding signal (z-score),[23],0.354
same,glycan array binding signal (z-score),[24],1.02
same,glycan array binding signal (z-score),[25],-1.01
same,glycan array binding signal (z-score),[26],-0.247
same,glycan array binding signal (z-score),[27],-0.253
same,glycan array binding signal (z-score),[28],0.182
same,glycan array binding signal (z-score),[29],-1.47
same,glycan array binding signal (z-score),[30],0.642
same,glycan array binding signal (z-score),[31],-0.255
same,glycan array binding signal (z-score),[32],-0.096
same,glycan array binding signal (z-score),[33],-0.809
same,glycan array binding signal (z-score),[34],-0.235
same,glycan array binding signal (z-score),[35],-0.066
same,glycan array binding signal (z-score),[36],-0.073
same,glycan array binding signal (z-score),[37],0.576
same,glycan array binding signal (z-score),[38],-0.764

# Given with tabs: entries from further up
binder	measurement	setting	value
B1	glycan array binding signal (z-score)	[33]	-0.809
same	glycan array binding signal (z-score)	[34]	-0.235
